# Hit rate of the full screen: of about 53,000 sequences, about 3,700 (7%) were called active.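 The calls were made as follows: active = gene knockdowns whose robust z-score for IL-1 alpha signal is at least 2 or at most -2, so actives lie on both sides; inactive = the rest.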 Some of the results follow.
# Test: Components of the Cytosolic LPS Sensing Pathway: Gene Identification via Genome-wide siRNA Screen
# Details: RAW264.7 macrophages, IL-1a HTRF, actives lie on both sides, screened at 100 nM (by protocol), cells primed 5 h with Pam3CSK4 first
# Source text: Non-canonical inflammasome activation by cytosolic LPS is a critical component of the host response to Gram-negative bacterial infection, however we lack a comprehensive understanding of the cellular processes that control this pathway. Here we describe a genome-wide siRNA screen to identify genes regulating the mouse macrophage IL-1 alpha response to cytosolic LPS.
# RAW264.7 cells were maintained in complete DMEM media, comprising DMEM with 4.5 g/L glucose, 10% FBS (Gemini Bio-Products, West Sacramento, CA), 2 mM Glutamine (Lonza) and 20 mM HEPES (Lonza), hereafter complete DMEM.
# The RNAi screen was conducted in 384-well format using the Ambion Silencer Mouse Genome siRNA Library (#4391425), which consists of three unique, nonoverlapping, nonpooled siRNAs for each of 17,000 gene targets. siRNA reagents ([…]) were stamped into 384-well white flat-bottom microplates (Corning, 3570) using a Velocity11 VPrep liquid handling system (Agilent) integrated into a BioCel robotic platform (Agilent) in columns 1-22, leaving columns 23-24 empty for negative (Ambion, Negative control #1) and positive (mouse Casp4) controls, respectively. The median value of each plate's negative control column was used to normalize sample wells, and the positive control was used to assess transfection efficiency and assay performance.
# Lipofectamine RNAiMAX Transfection Reagent ([…]; Invitrogen) was added in […] serum-free, antibiotic-free media to plate wells using a Thermo Scientific Matrix WellMate and Microplate Stacker. Plates were incubated for 45 min at room temperature to allow for the sufficient formation of siRNA-lipid complexes. Cells were seeded at a density of 1x10^4 cells per well in 20 microL media containing 20% (vol/vol) FBS without antibiotics. The final concentration of siRNA in each well was 100 nM. Cells were cultured for 48h at 37 degrees C in 5% CO2 before addition of […] of TLR ligand Pam3CSK4 for 5 hours. The medium was then removed, replaced with […] growth media and cell were transfected with […] of LipidA and TransIT-TKO (Mirus) for 24 hour. At the end of the LipidA treatment, […] of supernatant was transferred to a 384 Greiner Bio-one non-binding low volume plate and […] of IL-1a HTRF reagent (Cisbio, 62MIL1APEH) was added and incubated at room temperature overnight. The plates were read on an EnVision plate reader (PerkinElmer). Cell viability was measured by adding 20ul Cell Titer Glo to the original plate and running a luminescence read on the EnVision. The quantified IL-1a signal for each siRNA gene-targeted well was divided by the median of the negative control wells and multiplied by 100 to achieve a negative control normalized value for each well/siRNA. This normalized value was then used to generate a robust z-score by first taking the log of each value and then by subtracting the median and dividing by the […].
row,Sequence,z-score
1,GGCUGGACUUUCAGCUGAUTT against Sema6d,inactive: 0.993
2,GAUUGCCAAAGACAAAAGCTT against Vmn1r212,inactive: 0.401
3,GCUUAGACUCACCAAAGGCTT against Gpr26,inactive: 0.475
4,GGAGCUGGACGACUACUAUTT against Ing1,inactive: -0.0369
5,CCCACUGAUGAUUACGUUCTT against Irf5,inactive: -0.247
6,GGUGAUCUUAGUGGAGGGCTT against Ppox,inactive: 0.854
7,GGGUAAAAGUAGCUGCCCUTT against Trp53inp2,inactive: -0.401
8,GGCUCCAGAAGGAACUUUCTT against Socs2,inactive: -0.317
9,GGACAAGAAGCAUCUUUCATT against Smpdl3a,inactive: -1.16
10,CCCAGCUCUGUUUAAUGAUTT against Klf8,inactive: -0.449
11,CCAACUCGUGAUUCUAGACTT against Tmed10,inactive: 1.27
12,GGGCUUACCGUAUAACUUUTT against Nptn,inactive: 1.4
13,GGUCCUACUAUAACCUGCGTT against Gdf3,inactive: -0.103
14,GGAGGGAAGAAACAAUCUATT against Rnf40,inactive: 0.497
15,GGAAACUAUGGGCAAGUAATT against Olfr1239,inactive: 0.153
16,GGUCAUCAAAUUCCUAAUCTT against Lrrc8c,inactive: 0.116
17,GGUGAGUAUAUUCAAGUUATT against Ndor1,active: 4.36
18,CCUUAGACUGUUCAGUCCUTT against Spryd4,inactive: 0.233
19,AAAAGCUUCACCUAACUAUTT against Ascc1,inactive: 1.73
20,GGUGACUCGGCUAUUUUCCTT against Ccdc22,inactive: 0.756
21,GGCAGCUGAUUUUUGAUGATT against Agbl2,inactive: -1
22,GGUUUUACCACAGAUUUGCTT against Olfr263,inactive: 0.606
23,GGCUUCUAUUUGUUUCCUGTT against Cbl,inactive: 0.353

row,Sequence,z-score
1,GGUCAUAUAGGGAUACUUATT against Dhrs2,inactive: -1.13
2,GGAAACCAUUGAAGAUGUUTT against Psmd13,inactive: -1.2
3,AAUCCAAGGGCCGGCCUCATT against Hs3st6,inactive: -0.726
4,GGCAUGAUCAUGCAUGUGATT against Hils1,inactive: 0.707
5,GGCUACCAGAAAGAUGUGUTT against Cdcp2,inactive: -0.0624
6,CGGUUUCAGUCUUUUGGAUTT against Cd84,inactive: -0.0778
7,GGGAAUCCAUUAUUGCUGATT against Spata32,inactive: -0.199
8,GGUGAUGUAUUAUUAUCCATT against Defb12,inactive: 0.277
9,GGCCCUUUAUUUUGAGUACTT against Cp,inactive: -0.749
10,GCAUGUUAGGUGCUGUGCATT against Slc35e2,inactive: 0.659
11,GCAUAGUAGGAUCUGUCUUTT against Tdpoz5,inactive: 0.26
12,GGAAUCCUGCUGUGGUGUUTT against Cyp2c65,inactive: 1
13,GCGAUGAUGUACAAAAGGGTT against Jph3,inactive: -0.156
14,CGGUUCCAUUCUACAUUUUTT against Scpep1,inactive: 0.541
15,GGGUUUUUGUGGGUCUAGGTT against Lta,inactive: 0.236
16,GCAGCUGGAUAUCAUAAAATT against Ccdc162,inactive: -1.27
17,GGUCGUCGUGAGAUCUUAUTT against Prlhr,inactive: -0.342
18,GGACAUGUUCAAUGUGAAUTT against Dhrs11,inactive: 0.252
19,GGGUUUGAGGACUUGAUGATT against Strada,inactive: -0.145
20,CCUAUCAGACUGUAAUAAGTT against Kdm2b,inactive: -0.404
21,GCUGACGAAAUCAAGAACCTT against Sox9,inactive: 0.712
22,GGAAGGAUAUGAGAAUUUCTT against Nt5c3,active: 2.51
23,GGGAACAAAGAAUUUUACATT against Msl1,inactive: 0.15

# Random excerpt: five records from the list, in no set order.
row,Sequence,z-score
14,CGGUUCCAUUCUACAUUUUTT against Scpep1,inactive: 0.541
12,GGGCUUACCGUAUAACUUUTT against Nptn,inactive: 1.4
5,GGCUACCAGAAAGAUGUGUTT against Cdcp2,inactive: -0.0624
7,GGGUAAAAGUAGCUGCCCUTT against Trp53inp2,inactive: -0.401
10,CCCAGCUCUGUUUAAUGAUTT against Klf8,inactive: -0.449

# Additional results follow:

row,Sequence,z-score
1,GGACAUAUUGGAUGGUGAUTT against Usp2,inactive: -0.847
2,GCUUCUUGAAAGUACAUUGTT against Nae1,inactive: 0.386
3,GCCUGUUCCAGAAUUGCUATT against Bcl7c,inactive: -1.44
4,GCUAAGUAAGGUGGUAUAUTT against Dgka,inactive: -1.03
5,GGAACAAAGAUGUCAAGUCTT against Olfr521,inactive: 1.59
6,GCCAUCAUGCUUUCAUGACTT against Tspo,inactive: 0.143
7,GGAAGAAAGGAGAAAACCATT against Rars,inactive: -1.53
8,GCCUUCCAACGAAGUUAAUTT against Epha3,inactive: 0.214
9,GGAGUGCGGACGAUAAUACTT against Ppp1r3f,inactive: -1.97
10,GGAGGUGGUCCAGAAUUUUTT against Cotl1,inactive: 0.633
11,GGCACCAGCUCAUUAUCAATT against Npy4r,inactive: -0.54
12,GGCACAAAGGCAGUUAUUCTT against Lage3,inactive: -0.181
13,GGAAUAUUCAGAAUCCCUCTT against Tnfaip8l3,inactive: -0.762
14,CGUUGAUCCUUUCUAACAUTT against Olfr888,inactive: -1.73
15,GGCAGUGGGAAGUCUUUCATT against Kif17,inactive: 0.287
16,GGUGGAAGCCGAAGUAUCUTT against Krt15,inactive: 0.655
17,GCUCAAGGACUUACGCAACTT against Zfp668,inactive: -1.61
18,GGUCUUCGUGGACAUUCCATT against Arrdc2,inactive: 1.05
19,GCAGCCAAUGGGUUCGCUUTT against Hoxa3,inactive: 1.13
20,GCGGAACUGAUUUAGUUCATT against Kazald1,inactive: 0.992
21,CGGAGUUCAGCAUUUACCCTT against Shld2,inactive: 0.428
22,GCAACACGUCUUCUUUGCATT against Hadh,inactive: -0.824
23,GCUACUAUAGCAACCUAACTT against Eef2k,inactive: -0.97
